Results on two compounds are retold here after patent US9802941B2, “Compounds and methods for inhibiting histone demethylases” (Gilead Sciences, Inc., priority 2014, dated 2017).

Amino acid sequences for entries named in this document (tags omitted). Residues count along the entry.
UniProt Q9UPP1, 37-440 limits assumed: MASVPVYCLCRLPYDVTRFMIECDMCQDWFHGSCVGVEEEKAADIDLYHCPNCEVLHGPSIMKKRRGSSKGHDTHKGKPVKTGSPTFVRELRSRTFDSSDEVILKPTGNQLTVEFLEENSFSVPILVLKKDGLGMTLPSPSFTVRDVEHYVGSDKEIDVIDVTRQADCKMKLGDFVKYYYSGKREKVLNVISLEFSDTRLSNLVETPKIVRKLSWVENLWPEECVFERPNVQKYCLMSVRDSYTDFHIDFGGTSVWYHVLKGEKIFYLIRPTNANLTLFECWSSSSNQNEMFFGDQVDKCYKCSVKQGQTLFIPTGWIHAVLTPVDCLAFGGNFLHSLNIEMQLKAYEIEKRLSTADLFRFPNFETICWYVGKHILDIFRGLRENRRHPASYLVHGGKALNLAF
UniProt Q8NHM5, 1-650 limits assumed: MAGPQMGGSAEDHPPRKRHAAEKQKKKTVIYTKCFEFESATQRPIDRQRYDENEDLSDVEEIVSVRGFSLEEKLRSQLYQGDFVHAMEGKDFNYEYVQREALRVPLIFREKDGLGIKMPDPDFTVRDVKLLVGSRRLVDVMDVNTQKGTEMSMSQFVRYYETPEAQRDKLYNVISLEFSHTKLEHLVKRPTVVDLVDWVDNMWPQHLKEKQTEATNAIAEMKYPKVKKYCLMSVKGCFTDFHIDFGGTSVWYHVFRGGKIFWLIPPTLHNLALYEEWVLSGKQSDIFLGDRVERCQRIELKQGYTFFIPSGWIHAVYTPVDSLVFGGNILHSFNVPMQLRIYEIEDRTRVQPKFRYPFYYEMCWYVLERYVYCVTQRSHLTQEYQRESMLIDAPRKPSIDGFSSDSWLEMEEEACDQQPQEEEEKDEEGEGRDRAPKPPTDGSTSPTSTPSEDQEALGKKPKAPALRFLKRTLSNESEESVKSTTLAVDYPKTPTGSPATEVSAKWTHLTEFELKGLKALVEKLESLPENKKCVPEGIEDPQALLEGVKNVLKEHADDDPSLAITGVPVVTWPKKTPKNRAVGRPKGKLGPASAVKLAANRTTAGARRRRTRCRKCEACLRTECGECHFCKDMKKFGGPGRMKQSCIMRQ
UniProt O15550, 919-1401 limits assumed: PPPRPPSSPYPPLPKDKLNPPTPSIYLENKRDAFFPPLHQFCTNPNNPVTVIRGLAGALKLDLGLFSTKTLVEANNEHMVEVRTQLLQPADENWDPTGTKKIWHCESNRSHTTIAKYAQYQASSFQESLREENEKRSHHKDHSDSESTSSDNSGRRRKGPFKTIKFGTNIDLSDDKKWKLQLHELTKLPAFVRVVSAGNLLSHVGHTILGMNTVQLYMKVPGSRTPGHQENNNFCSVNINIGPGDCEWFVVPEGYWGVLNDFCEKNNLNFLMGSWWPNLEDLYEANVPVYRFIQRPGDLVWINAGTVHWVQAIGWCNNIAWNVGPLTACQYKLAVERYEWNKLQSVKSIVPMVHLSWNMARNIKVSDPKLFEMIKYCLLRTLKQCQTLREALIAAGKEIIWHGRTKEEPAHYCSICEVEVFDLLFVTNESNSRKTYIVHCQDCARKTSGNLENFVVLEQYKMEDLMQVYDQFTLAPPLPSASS
UniProt Q9H3R0, 1-349 limits assumed: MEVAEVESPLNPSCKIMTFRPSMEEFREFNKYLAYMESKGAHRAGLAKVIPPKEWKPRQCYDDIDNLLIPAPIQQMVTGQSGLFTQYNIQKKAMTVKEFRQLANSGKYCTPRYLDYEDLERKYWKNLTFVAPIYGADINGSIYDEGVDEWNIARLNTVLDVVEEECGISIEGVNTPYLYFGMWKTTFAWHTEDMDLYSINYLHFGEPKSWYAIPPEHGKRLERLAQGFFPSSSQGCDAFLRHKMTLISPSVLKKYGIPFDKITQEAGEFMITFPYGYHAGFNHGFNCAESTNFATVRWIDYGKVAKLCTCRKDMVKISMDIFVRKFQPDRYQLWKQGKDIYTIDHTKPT
UniProt Q9UGL1, 1-809 limits assumed: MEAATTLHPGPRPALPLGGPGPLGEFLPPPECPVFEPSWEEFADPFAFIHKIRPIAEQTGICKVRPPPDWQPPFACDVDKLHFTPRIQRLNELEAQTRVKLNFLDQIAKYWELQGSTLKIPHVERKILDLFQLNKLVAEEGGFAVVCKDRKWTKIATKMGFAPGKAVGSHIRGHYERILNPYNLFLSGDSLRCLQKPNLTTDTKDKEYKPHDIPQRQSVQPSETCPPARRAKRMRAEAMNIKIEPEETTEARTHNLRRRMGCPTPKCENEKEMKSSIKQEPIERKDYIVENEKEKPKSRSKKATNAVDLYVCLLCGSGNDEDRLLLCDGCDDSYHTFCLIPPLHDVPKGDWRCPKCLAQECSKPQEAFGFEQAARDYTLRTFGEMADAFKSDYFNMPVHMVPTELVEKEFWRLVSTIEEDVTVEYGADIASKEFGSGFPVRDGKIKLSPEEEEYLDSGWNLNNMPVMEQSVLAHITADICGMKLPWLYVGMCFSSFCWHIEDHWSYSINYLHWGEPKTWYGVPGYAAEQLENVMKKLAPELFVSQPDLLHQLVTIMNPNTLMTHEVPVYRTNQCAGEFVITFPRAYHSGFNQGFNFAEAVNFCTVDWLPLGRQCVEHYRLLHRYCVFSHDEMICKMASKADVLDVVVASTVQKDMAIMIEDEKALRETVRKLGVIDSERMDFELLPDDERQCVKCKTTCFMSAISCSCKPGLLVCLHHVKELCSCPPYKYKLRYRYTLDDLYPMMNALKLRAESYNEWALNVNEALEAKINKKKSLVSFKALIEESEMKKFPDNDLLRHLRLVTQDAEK

pIC50: −log10 of the molar value. Like-named read-outs stand apart in the source and are kept apart here. Structures were worked out from names or drawings and are uncertain. Bounds are passed on as bounds.

One assay concerns the target PHF8 (KDM7) (Homo sapiens, UniProt Q9UPP1). Description: Histone lysine demethylase AlphaLISA assay, PHF8. A general note: Bead proximity is the source of the signal in Alpha formats.
In another assay the target is KDM2B (FBXL10) (Homo sapiens, UniProt Q8NHM5). Description: Histone lysine demethylase AlphaLISA assay, KDM2B.
A further assay has as its target KDM6A (UTX) (Homo sapiens, UniProt O15550). Kind of assay: Histone lysine demethylase AlphaLISA assay, KDM6A.
Another assay deals with KDM4C (JMJD2C) (Homo sapiens, UniProt Q9H3R0). Kind of assay: Histone lysine demethylase AlphaLISA assay, KDM4C.
The target in another assay is KDM5B (PLU-1) (Homo sapiens, UniProt Q9UGL1). Kind of assay: Histone lysine demethylase AlphaLISA assay, KDM5B.
[1] abbreviates: read-out: HDME Inhibition PHF8 (IC50), AlphaLISA assay.
Setting [2] is: read-out: HDME Inhibition PHF8, AlphaLISA, in vitro.
[3] abbreviates: read-out: HDME Inhibition KDM2B (IC50), AlphaLISA assay.
[4] abbreviates: read-out: HDME Inhibition KDM2B, AlphaLISA, in vitro.
Where [5] appears, read: read-out: HDME Inhibition KDM4C (IC50), AlphaLISA assay.
[6] abbreviates: read-out: HDME Inhibition KDM4C, AlphaLISA, in vitro.
[7] abbreviates: read-out: HDME Inhibition KDM5B (IC50), AlphaLISA assay.
The mark [8] stands for this setting: read-out: HDME Inhibition KDM5B, AlphaLISA, in vitro.

For `Cc1cc(C(=O)O)cc(CNCc2nnc(CCc3ccccc3)n2Cc2ccc(F)cc2)n1`, the pIC50 on PHF8 (KDM7) (setting [1]) was 5.69; at PHF8 (KDM7) (setting [2]) it was 5.69; at KDM2B (FBXL10) (setting [3]) it was 5.99; on KDM2B (FBXL10) (setting [4]), 5.99; at KDM6A (UTX) (read-out: HDME Inhibition KDM6A (IC50), AlphaLISA assay), less than 5.00; on KDM6A (UTX) (read-out: HDME Inhibition KDM6A, AlphaLISA, in vitro), less than 5.00. Besides, the pIC50 at KDM4C (JMJD2C) (setting [5]), at KDM4C (JMJD2C) (setting [6]), at KDM5B (PLU-1) (setting [7]) and on KDM5B (PLU-1) (setting [8]) was less than 5.00 in each case.
Regarding `Cc1cc(C(=O)O)cc(CNCc2nncn2CCc2cccc(Cl)c2)n1`, the pIC50 is 6.06 at PHF8 (KDM7) (setting [1]); 6.06 on PHF8 (KDM7) (setting [2]); 6.12 at KDM2B (FBXL10) (setting [3]); 6.12 at KDM2B (FBXL10) (setting [4]); less than 5.00 on KDM4C (JMJD2C) (setting [5]); less than 5.00 at KDM4C (JMJD2C) (setting [6]). Moreover, the pIC50 on KDM5B (PLU-1) (setting [7]) and at KDM5B (PLU-1) (setting [8]) was less than 5.00 in each case.
